Data published in US20260325508A1, “COMBINATION OF PAC-1 AND CAR T-CELL TREATMENTS” (THE BOARD OF TRUSTEES OF THE UNIVERSITY OF ILLINOIS, priority 2023, published 2026).
For at least one compound, name, drawing or mass did not settle the structure.

How the values were obtained:
Type in all cases: cell-based, human
Details in all cases: IC50 value not given
A172 = assay: PAC-1 SRB assay, A172
LOX-IMVI = assay: PAC-1 SRB assay, LOX-IMVI
HCC1998 = assay: PAC-1 SRB assay, HCC1998

Measured: sensitivity to PAC-1 (IC50 at 72 hrs)

C=CCc1cccc(/C=N/NC(=O)CN2CCN(Cc3ccccc3)CC2)c1O [PAC-1]
sensitive: A172 | LOX-IMVI | HCC1998
